Results are given in words; binding and its absence hold for the method and conditions named. Some binding calls cover weakened binding; strength is not graded here.
Target: human 4-1BBL expressed on transfected P815 cells (P815-4-1BBL) (human) (UniProt P41273)
Assay: staining of P815 clones expressing human 4-1BBL (data not shown)

Amino acid sequences for entries named in this document (tags omitted). Residues count along the entry.
UniProt P41273: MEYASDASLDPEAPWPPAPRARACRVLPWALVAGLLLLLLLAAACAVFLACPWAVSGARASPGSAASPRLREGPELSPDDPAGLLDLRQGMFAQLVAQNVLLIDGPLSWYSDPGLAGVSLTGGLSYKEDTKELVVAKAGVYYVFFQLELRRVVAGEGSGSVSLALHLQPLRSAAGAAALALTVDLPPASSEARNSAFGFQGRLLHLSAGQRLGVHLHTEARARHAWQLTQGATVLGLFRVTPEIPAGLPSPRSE
UniProt Q07011, residues 24-186: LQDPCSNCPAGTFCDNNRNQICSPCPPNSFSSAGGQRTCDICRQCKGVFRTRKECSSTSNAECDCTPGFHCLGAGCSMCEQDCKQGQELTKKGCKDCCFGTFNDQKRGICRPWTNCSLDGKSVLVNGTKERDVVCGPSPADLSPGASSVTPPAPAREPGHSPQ

human 4-1BB fusion protein (from UniProt Q07011 24-186)
binding: binds

From patent US20120076722A1
